According to publication doi:10.1101/2025.11.07.687288:
Where two headings read alike, the source gives them in different places. No constants are given. Whether binding was seen depends on the method and setting. In cells and extracts the contact can be indirect. Some entries that bind do so weakly or less than the wild type.

By UniProt entry, the sequences of proteins in these tests, tags left out. Residues count along the entry.
UniProt F1PAA9, residues 157-885: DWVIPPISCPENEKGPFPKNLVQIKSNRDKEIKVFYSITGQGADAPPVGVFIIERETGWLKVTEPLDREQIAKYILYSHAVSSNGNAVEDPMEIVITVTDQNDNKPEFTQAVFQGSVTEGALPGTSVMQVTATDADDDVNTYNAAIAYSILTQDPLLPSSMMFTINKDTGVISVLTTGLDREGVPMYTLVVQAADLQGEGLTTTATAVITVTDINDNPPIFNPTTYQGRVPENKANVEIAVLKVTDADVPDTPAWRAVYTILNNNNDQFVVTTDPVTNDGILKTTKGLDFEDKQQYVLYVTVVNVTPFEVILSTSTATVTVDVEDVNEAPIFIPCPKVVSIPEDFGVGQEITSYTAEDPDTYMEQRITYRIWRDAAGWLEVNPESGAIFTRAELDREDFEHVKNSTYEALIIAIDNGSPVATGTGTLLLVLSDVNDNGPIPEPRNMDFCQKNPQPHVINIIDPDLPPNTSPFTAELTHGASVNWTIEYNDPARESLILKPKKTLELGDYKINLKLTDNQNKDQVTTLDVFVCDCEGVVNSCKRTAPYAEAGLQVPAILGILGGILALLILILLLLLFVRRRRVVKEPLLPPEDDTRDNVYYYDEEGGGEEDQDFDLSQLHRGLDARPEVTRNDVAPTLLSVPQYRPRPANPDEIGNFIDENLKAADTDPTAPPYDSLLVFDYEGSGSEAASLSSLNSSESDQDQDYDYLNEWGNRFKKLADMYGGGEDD

Key:
[1] = molecular target: E-cadherin, wild type, as the Dimerization Activated TurboID pair (WT-DAT: EcadN and EcadC) (UniProt F1PAA9); test: split reporter
[2] = molecular target: E-cadherin, wild type, as the Dimerization Activated TurboID pair (WT-DAT: EcadN and EcadC) (UniProt F1PAA9); test: split reporter; remark: listed apart in the source

Substance: E-cadherin, wild type, as the Dimerization Activated TurboID pair (WT-DAT: EcadN and EcadC) (from UniProt F1PAA9) (receptor)
- binding [1]: binds
- binding [2]: binds
